Results published in publication PMC12040169 (PLOS Biology, 2025).
The other results are listed elsewhere or left out.

What follows are compounds tested on T1, CTL2-GFP (C. trachomatis L2/434/Bu, GFP-expressing). Details: bulk GFP, single well; 28.5 h, 10 µM; inhibitor.
T1 construct: L2/434/Bu, GFP-expressing
Set-up: species or system HeLa; Intracellular C. trachomatis growth in HeLa cells, bulk GFP fluorescence relative to DMSO

SMILES	% of control remaining
O=C(Nc1ccc(C(=O)Nc2cccc(-c3nc4ccccc4o3)c2)cc1)c1ccc([N+](=O)[O-])cc1 [CBK262606]	100%
c1nc(NCCN2CCOCC2)c2c3c(sc2n1)CCCCC3 [CBK268418]	102.027%
COc1ccc(S(=O)(=O)Nc2cccc(C(=O)N3CCOCC3)c2)cc1OC [CBK039010]	124.09%
COc1ncccc1C(=O)Nc1ccc(C)nc1C [CBK200292]	102.326%
Cn1cnnc1SCC(=O)N1CCc2ccccc21 [CBK287576]	139.925%
FC(F)C(F)(F)Oc1cccc(Nc2nccn3ccnc23)c1 [CBK066284]	103.766%
COc1ccc(-c2cnc(Nc3ccc(N4CCOCC4)cc3)c3nccn23)cn1 [CBK091238]	199.309%
COc1ccc(C(c2ccccn2)N(C)C(=O)C2CCN(S(=O)(=O)C(C)C)CC2)cc1 (centres unmarked) [CBK060280]	100%
O=C(CSCc1ccc(Br)cc1)NCC1CCCO1 (centres unmarked) [CBK268506]	148.253%
c1cnc2c(-c3cn4ccnc4c(NC4CC4)n3)cccc2c1 [CBK037911]	109.509%
O=C(CC(CN1CCN(Cc2cccc(Cl)c2)CC1)C(=O)O)Nc1cccc(O)c1 (centres unmarked) [CBK286811]	165.626%
O=C(CC1CCCCC1)N1CCC(n2nc(C3CC3)ccc2=O)CC1 [CBK284241]	113.429%
CC(C)NC(=O)CCn1c(-c2ccncc2)cc2cccnc21 [CBK284931]	81.863%
O=C(Cc1ccccc1)Nc1ccc(C(=O)O)cc1NC(=O)Cc1ccccc1 [CBK287049]	99.5947%
CCC(C)(C)c1nnc(NC(=O)COc2ccc(Cl)cc2Cl)s1 [CBK058435]	112.309%
Cc1cc(=O)oc2cc(NC(=S)N3CCN(C/C=C/c4ccccc4)CC3)ccc12 [CBK267045]	164.695%
O=C(c1ccccc1)c1ccc(S(=O)(=O)N2CCN(Cc3ccc(O)c(F)c3)CC2)cc1 [CBK062948]	101.072%
O=C(Nc1ccccc1)O[C@@H]1CO[C@H]2[C@@H]1OC[C@@H]2NC(=O)C1CC1 [CBK289464]	130.312%
COc1ccc(C(=O)Nc2cccc(-c3nc4ccccc4[nH]3)c2)c(OC)c1 [CBK072662]	88.2134%
CN(C(=O)c1ccccn1)C1CCN(c2ncnc3ccccc23)CC1 [CBK305346]	98.859%
c1cc(CSc2nnc(-c3ccncc3)o2)ccn1 [CBK270235]	150.143%
CC(=O)c1cccc(NC(=O)/C(=C\c2cccnc2)NC(=O)c2ccc(C)cc2)c1 [CBK262456]	110.58%
CC(Cc1nc(-c2nccn2C)cs1)n1cc(Cl)cn1 (centres unmarked) [CBK304114]	15.3385%
Cc1ccc(Cl)cc1N1CCN(C(=O)COc2ccc(S(=O)(=O)Nc3ccc(F)cc3)cc2)CC1 [CBK268229]	127.464%
Cc1ccccc1N1CCN(Cc2cccc(C(=O)O)c2)CC1 [CBK286890]	153.472%

SMILES	% of control remaining
CN(C)c1ccc(Nc2cc(-c3ccco3)ncn2)cc1 [CBK090946]	135.988%
CN(C)CC1CN(C(=O)Cc2ccccc2F)Cc2ccccc2O1 (centres unmarked) [CBK285327]	155.83%
Cc1csc(Sc2nccc(C(F)(F)F)n2)n1 [CBK093770]	93.1738%
CC1CN(S(=O)(=O)C(C)C)CCC1NCc1ccncc1 (centres unmarked) [CBK304870]	92.736%
Cc1ccc(S(=O)(=O)N2CCN(CCCc3ccccc3)CC2)cc1 [CBK263453]	115.872%
CN(C)CC(=O)N1c2ccccc2CCc2ccc(NC(=O)c3ccccc3)cc21 [CBK261289C]	118.539%
O=C1CCC(C(=O)N2CCCC(c3cc4ccccc4cn3)C2)CC1 (centres unmarked) [CBK284989]	107.262%
Cc1sc2nc(SCC(=O)c3c[nH]c4ccccc34)nc(O)c2c1C [CBK264068]	130.841%
Cc1ccc(Sc2nccn3c(=O)[nH]nc23)c(C)c1 [CBK288055]	124.52%
CC(=O)Nc1cccc(NC(=O)CN(C)S(=O)(=O)c2ccc(F)cc2)c1 [CBK269951]	146.259%
CCN1C(=O)CC2(C1=O)C(=O)N(CCCOc1ccccc1OC)c1ccccc12 (centres unmarked) [CBK075498]	104.161%
CC1CCN(S(=O)(=O)c2cccc(S(=O)(=O)c3cccc(S(=O)(=O)N4CCC(C)CC4)c3)c2)CC1 [CBK261731]	118.852%
O=[N+]([O-])c1cc(-c2nc(-c3ccco3)c(-c3ccco3)[nH]2)ccc1Br [CBK019778]	100%
CN1CCC2(CC1)CN(C(=O)C1CC1)Cc1ccccc1O2 [CBK284967]	104.218%
c1cnc2[nH]c([C@H]3CCCO3)c(CN3CCCCC3)c2c1 [CBK282284]	130.91%
Cc1nc2c(c(=O)[nH]1)CN(Cc1ccc(Cl)cc1)CC2 [CBK282415]	134.619%
CC(C)(C)c1cc(C(=O)NCCN)n(Cc2ccc(Cl)cc2Cl)n1 [CBK116631T]	51.3918%
CC(C)c1ccc(/C=C/C(=O)NCc2ccc(NS(C)(=O)=O)cc2)cc1 [CBK161512]	44.2788%
CN1CCN(c2nccnc2-c2ccccc2)CC1 [CBK088825]	111.331%
O=c1[nH]c2ncc(-c3ccc(OC(F)(F)F)cc3)nc2n1Cc1ccc(Cl)cc1 [CBK064409]	149.363%
O=C(O)c1cccc(Cn2ccc3c(F)cccc32)c1 [CBK003453]	169.339%
FC(F)(F)Oc1ccccc1-c1nnc(NC2CCCCCC2)s1 [CBK074041]	121.652%
CCCCCn1c(=O)c(-c2nc3ccccc3c(=O)[nH]2)c(O)c2ccccc21 [CBK291215]	95.9531%
O=C(CSc1nnc(-c2ccncc2)n1-c1ccc(Cl)cc1)Nc1ccccc1-c1ccccc1 [CBK266205]	156.265%
CCOC(=O)c1cnc2ccccc2c1NCCN1CCOCC1 [CBK304328]	126.515%

Of the compounds above, two have a furan ring, fused or not.
SMILES	% of control remaining
CN(C)c1ccc(Nc2cc(-c3ccco3)ncn2)cc1 [CBK090946]	135.988%
O=[N+]([O-])c1cc(-c2nc(-c3ccco3)c(-c3ccco3)[nH]2)ccc1Br [CBK019778]	100%
